The text below walks through data of PMC9380774, “Mpe1 senses the binding of pre-mRNA and controls 3′ end processing by CPF” (Molecular Cell, 2022).

These are yes or no findings as the source states them, for the method shown. For some of these results: Binding seen in cells or lysates may run through a third protein. Some entries that bind do so weakly or less than the wild type. Where a sequence is shown, tags or fusion partners need not be part of it.

Test [1] has as its target T1, StrepII-tagged Mpe1 (Mpe1-SII) (S. cerevisiae) (UniProt P35728).
T1 sequence: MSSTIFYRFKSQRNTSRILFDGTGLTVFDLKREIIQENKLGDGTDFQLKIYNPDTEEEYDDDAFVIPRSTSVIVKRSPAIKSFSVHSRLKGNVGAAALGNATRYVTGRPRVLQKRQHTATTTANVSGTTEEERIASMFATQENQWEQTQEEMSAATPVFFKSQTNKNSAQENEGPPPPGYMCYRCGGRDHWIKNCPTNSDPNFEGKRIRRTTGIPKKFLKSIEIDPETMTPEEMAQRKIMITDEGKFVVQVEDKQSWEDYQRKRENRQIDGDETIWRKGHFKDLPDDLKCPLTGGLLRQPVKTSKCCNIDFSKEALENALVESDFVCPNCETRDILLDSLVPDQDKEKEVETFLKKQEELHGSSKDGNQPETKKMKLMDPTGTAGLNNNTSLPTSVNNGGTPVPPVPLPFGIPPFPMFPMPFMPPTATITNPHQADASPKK
In words: pull-down; Sf9 cells co-expressing Mpe1-SII with the partner; cleared lysate on Strep-Tactin resin in Buffer A (50 mM HEPES pH 8, 75 mM NaCl, 1 mM TCEP), eluted with desthiobiotin; SDS-PAGE stained with Instant Blue.

The target of test [2] is T2, StrepII-tagged Mpe1 (Mpe1-SII) (S. cerevisiae), P35728.
T2 chain: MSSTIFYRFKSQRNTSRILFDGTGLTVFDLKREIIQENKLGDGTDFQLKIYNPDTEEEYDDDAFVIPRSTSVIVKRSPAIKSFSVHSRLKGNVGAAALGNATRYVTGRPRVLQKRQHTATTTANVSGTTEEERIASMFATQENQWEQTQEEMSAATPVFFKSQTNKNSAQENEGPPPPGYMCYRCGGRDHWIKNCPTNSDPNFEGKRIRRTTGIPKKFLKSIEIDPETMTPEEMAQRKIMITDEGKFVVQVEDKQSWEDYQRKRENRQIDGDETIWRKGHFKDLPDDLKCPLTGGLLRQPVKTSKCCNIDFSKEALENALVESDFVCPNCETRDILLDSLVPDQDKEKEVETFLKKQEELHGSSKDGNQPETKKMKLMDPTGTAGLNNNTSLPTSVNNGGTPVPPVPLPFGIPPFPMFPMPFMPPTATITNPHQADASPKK
The description is as above. Particulars: remark: other sources report otherwise.

Test [3] deals with T3, Cft2(S), residues 1-720 (S. cerevisiae, UniProt Q12102 1-720).
T3 construct: Cft2, S. cerevisiae, residues 1-720, lacks the disordered C-terminal region; also called Cft2(short); truncated version of Cft2; source: E. coli BL21 Star (DE3), purified (Ni-NTA, 3C cleavage, MonoQ, Superdex 200)
T3 sequence (looked up): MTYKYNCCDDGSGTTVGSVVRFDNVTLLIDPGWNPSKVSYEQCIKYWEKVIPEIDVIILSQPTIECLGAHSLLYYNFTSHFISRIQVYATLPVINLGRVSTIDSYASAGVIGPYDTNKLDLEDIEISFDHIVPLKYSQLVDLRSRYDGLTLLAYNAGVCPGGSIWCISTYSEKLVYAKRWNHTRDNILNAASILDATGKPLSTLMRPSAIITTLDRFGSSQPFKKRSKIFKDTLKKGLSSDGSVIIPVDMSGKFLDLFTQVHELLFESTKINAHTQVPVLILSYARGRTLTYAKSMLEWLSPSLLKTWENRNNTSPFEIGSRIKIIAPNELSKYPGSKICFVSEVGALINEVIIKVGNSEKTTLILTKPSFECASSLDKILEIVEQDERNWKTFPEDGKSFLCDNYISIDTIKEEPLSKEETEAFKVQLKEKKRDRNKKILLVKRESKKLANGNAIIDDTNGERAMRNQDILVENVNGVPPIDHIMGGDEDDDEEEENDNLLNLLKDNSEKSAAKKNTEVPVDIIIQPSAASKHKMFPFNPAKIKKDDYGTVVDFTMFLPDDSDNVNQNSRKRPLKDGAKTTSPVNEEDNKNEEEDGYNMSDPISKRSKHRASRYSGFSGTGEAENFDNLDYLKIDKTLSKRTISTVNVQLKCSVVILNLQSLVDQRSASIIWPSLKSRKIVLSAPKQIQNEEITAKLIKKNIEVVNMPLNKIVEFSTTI
In words: cross-linking; polymerase module-Cft2(S)-Mpe1-RNA complex (0.5 mg/ml) with 2 mM sulfo-SDA for 2 h on ice, UV 365 nm for 15 min; 20 mM HEPES, 50 mM NaCl, 0.5 mM TCEP, pH 8.0; mass spectrometry, 1 % FDR on link level; both purified.

B1: Cft1 (protein, UniProt Q06632 1-1357)
chain: MNVYDDVLDATVVSHSLATHFTTSDYEELLVVRTNILSVYRPTRDGKLYLTDEFKFHGLITDIGLIPQKDSPLSCLLLCTGVAKISILKFNTLTNSIDTLSLHYYEGKFKGKSLVELAKISTLRMDPGSSCALLFNNDIIAFLPFHVNKNDDDEEEEDEDENIDDSELIHSMNQKSQGTNTFNKRKRTKLGDKFTAPSVVLVASELYEGAKNIIDIQFLKNFTKPTIALLYQPKLVWAGNTTISKLPTQYVILTLNIQPAESATKIESTTIAFVKELPWDLHTIVPVSNGAIIVGTNELAFLDNTGVLQSTVLLNSFADKELQKTKIINNSSLEIMFREKNTTSIWIPSSKSKNGGSNNDETLLLMDLKSNIYYIQMEAEGRLLIKFDIFKLPIVNDLLKENSNPKCITRLNATNSNKNMDLFIGFGSGNALVLRLNNLKSTIETREAHNPSSGTNSLMDINDDDDEEMDDLYADEAPENGLTTNDSKGTVETVQPFDIELLSSLRNVGPITSLTVGKVSSIDDVVKGLPNPNKNEYSLVATSGNGSGSHLTVIQTSVQPEIELALKFISITQIWNLKIKGRDRYLITTDSTKSRSDIYESDNNFKLHKGGRLRRDATTVYISMFGEEKRIIQVTTNHLYLYDTHFRRLTTIKFDYEVIHVSVMDPYILVTVSRGDIKIFELEEKNKRKLLKVDLPEILNEMVITSGLILKSNMCNEFLIGLSKSQEEQLLFTFVTADNQIIFFTKDHNDRIFQLNGVDQLNESLYISTYQLGDEIVPDPSIKQVMINKLGHDNKEEYLTILTFGGEIYQYRKLPQRRSRFYRNVTRNDLAITGAPDNAYAKGVSSIERIMHYFPDYNGYSVIFVTGSVPYILIKEDDSTPKIFKFGNIPLVSVTPWSERSVMCVDDIKNARVYTLTTDNMYYGNKLPLKQIKISNVLDDYKTLQKLVYHERAQLFLVSYCKRVPYEALGEDGEKVIGYDENVPHAEGFQSGILLINPKSWKVIDKIDFPKNSVVNEMRSSMIQINSKTKRKREYIIAGVANATTEDTPPTGAFHIYDVIEVVPEPGKPDTNYKLKEIFQEEVSGTVSTVCEVSGRFMISQSQKVLVRDIQEDNSVIPVAFLDIPVFVTDSKSFGNLLIIGDAMQGFQFIGFDAEPYRMISLGRSMSKFQTMSLEFLVNGGDMYFAATDADRNVHVLKYAPDEPNSLSGQRLVHCSSFTLHSTNSCMMLLPRNEEFGSPQVPSFQNVGGQVDGSVFKIVPLSEEKYRRLYVIQQQIIDRELQLGGLNPRMERLANDFYQMGHSMRPMLDFNVIRRFCGLAIDRRKSIAQKAGRHAHFEAWRDIINIEFSMRSLCQGK
Take B1: in test [1], the binding entry is given as “binds”.

B2: Fip1, P45976 1-327 (protein)
chain: MSSSEDEDDKFLYGSDSELALPSSKRSRDDEADAGASSNPDIVKRQKFDSPVEETPATARDDRSDEDIYSDSSDDDSDSDLEVIISLGPDPTRLDAKLLDSYSTAATSSSKDVISVATDVSNTITKTSDERLITEGEANQGVTATTVKATESDGNVPKAMTGSIDLDKEGIFDSVGITTIDPEVLKEKPWRQPGANLSDYFNYGFNEFTWMEYLHRQEKLQQDYNPRRILMGLLSLQQQGKLNSANDTDSNLGNIIDNNNNVNNANMSNLNSNMGNSMSGTPNPPAPPMHPSFPPLPMFGSFPPFPMPGMMPPMNQQPNQNQNQNSK
With B2, the binding entry in test [2] is “no binding”.

B3: StrepII-tagged Mpe1 (Mpe1-SII) (natural protein, S. cerevisiae)
chain: MSSTIFYRFKSQRNTSRILFDGTGLTVFDLKREIIQENKLGDGTDFQLKIYNPDTEEEYDDDAFVIPRSTSVIVKRSPAIKSFSVHSRLKGNVGAAALGNATRYVTGRPRVLQKRQHTATTTANVSGTTEEERIASMFATQENQWEQTQEEMSAATPVFFKSQTNKNSAQENEGPPPPGYMCYRCGGRDHWIKNCPTNSDPNFEGKRIRRTTGIPKKFLKSIEIDPETMTPEEMAQRKIMITDEGKFVVQVEDKQSWEDYQRKRENRQIDGDETIWRKGHFKDLPDDLKCPLTGGLLRQPVKTSKCCNIDFSKEALENALVESDFVCPNCETRDILLDSLVPDQDKEKEVETFLKKQEELHGSSKDGNQPETKKMKLMDPTGTAGLNNNTSLPTSVNNGGTPVPPVPLPFGIPPFPMFPMPFMPPTATITNPHQADASPKK
notes: Mpe1, S. cerevisiae, subunit of the nuclease module of CPF; no cleavage is told; also called WT Mpe1; Mpe1-3C-SII; source: Sf9, baculovirus; in lysate, and purified (Strep-Tactin, MonoQ)
Take B3: the binding result in test [3] is “no binding”.

B4: Yth1 (natural protein, S. cerevisiae)
chain: MSLIHPDTAKYPFKFEPFLRQEYSFSLDPDRPICEFYNSREGPKSCPRGPLCPKKHVLPIFQNKIVCRHWLRGLCKKNDQCEYLHEYNLRKMPECVFFSKNGYCTQSPDCQYLHIDPASKIPKCENYEMGFCPLGSSCPRRHIKKVFCQRYMTGFCPLGKDECDMEHPQFIIPDEGSKLRIKRDDEINTRKMDEEKERRLNAIINGEV
notes: Yth1, S. cerevisiae, subunit of the polymerase module of CPF; E. coli codon-optimized gene (GeneArt); source: Sf9, baculovirus, co-expressed with Mpe1-SII, in lysate; also as subunit of the purified polymerase module (Sf9)
Regarding B4, the binding entry in test [2] was “no binding”.
